Data: the supplement of paper PMC12823440, “Inhibitors supercharge kinase turnover through native proteolytic circuits” (Nature, 2025)
Structures can show the parent of a compound that is named as a salt. The list shows a part of the results. The calls rarely recur for the same compound in another form.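 In K562 cells expressing nanoluciferase-fused kinases, luminescence was recorded at 4 h intervals between 2 and 18 h, normalized as percent of control with DMSO at 100% and a positive control at 0%. A significant (2 sigma) signal drop marks a time point as decreased. The authors' rule for a hit is not shown and takes in more than the number of time points.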

By UniProt entry, the sequences of proteins in these tests, tags left out. Where a name states a change or a piece, a line headed by the entry shows the natural chain unless it says otherwise.
UniProt Q13555: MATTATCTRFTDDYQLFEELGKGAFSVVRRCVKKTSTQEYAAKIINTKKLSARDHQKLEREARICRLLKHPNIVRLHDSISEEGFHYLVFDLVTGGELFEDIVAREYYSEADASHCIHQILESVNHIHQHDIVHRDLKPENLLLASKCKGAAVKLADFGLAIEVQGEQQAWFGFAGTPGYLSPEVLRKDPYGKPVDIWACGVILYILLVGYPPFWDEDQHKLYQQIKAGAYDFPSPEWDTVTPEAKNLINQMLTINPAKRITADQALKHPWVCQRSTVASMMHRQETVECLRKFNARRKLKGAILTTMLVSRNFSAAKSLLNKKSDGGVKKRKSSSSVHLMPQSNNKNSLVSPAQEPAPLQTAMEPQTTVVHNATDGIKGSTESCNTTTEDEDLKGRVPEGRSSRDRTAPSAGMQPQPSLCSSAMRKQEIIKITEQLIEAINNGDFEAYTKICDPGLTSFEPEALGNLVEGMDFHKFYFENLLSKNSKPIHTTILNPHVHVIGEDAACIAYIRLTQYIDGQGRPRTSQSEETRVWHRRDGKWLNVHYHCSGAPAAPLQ

Each compound was assayed against CAMK2G (UniProt Q13555) (assay: kinase-Nluc reporter destabilization hit call (1 = scored as downregulated) (binary); higher = compound decreases kinase abundance). Conditions: K562; 2-18 h.

Structure (SMILES) | kinase-Nluc reporter destabilization hit call
CCCCNc1nc(N)c2[nH]c(=O)n(Cc3ccc(C)nc3)c2n1 (10 µM) | inactive: 0
N#CC(C#N)=Cc1ccc([N+](=O)[O-])c(O)c1 (10 µM) | inactive: 0
O=c1[nH]c2ccccc2n1C1CCN(Cc2ccc(-c3[nH]c4cc5ncnc5cc4nc3-c3ccccc3)cc2)CC1 [AKT inhibitor VIII] (2.5 µM) | inactive: 0
CC(=O)Oc1ccc(/C=C/c2cc(OC(C)=O)cc(OC(C)=O)c2)cc1 [Triacetylresveratrol] (10 µM) | inactive: 0
O=C1c2ccccc2C(=O)c2c1cccc2-c1cnn(C2CCNCC2)c1 [PDK4-IN-1 (hydrochloride)] (10 µM) | inactive: 0
CC1C(=O)OC2C(O)C34C5OC(=O)C3(OC3OC(=O)C(O)C34C(C(C)(C)C)C5O)C12O (stereo unspecified) [Ginkgolide C] (10 µM) | inactive: 0
O=Cc1cn(Cc2ccc(Cl)cc2)c2ccccc12 [Oncrasin-1] (10 µM) | inactive: 0
N#CC(C#N)=NNc1cccc(Cl)c1 (2.5 µM) | inactive: 0
CC(C)=CC[C@@H](OC(=O)CC(C)(C)O)C1=CC(=O)c2c(O)ccc(O)c2C1=O [β-Hydroxyisovalerylshikonin] (2.5 µM) | inactive: 0
O=c1ccc2cc(O[C@@H]3O[C@H](CO)[C@@H](O)[C@H](O)[C@H]3O)c(O)cc2o1 [Esculin] (10 µM) | inactive: 0
C[C@H]1CC[C@]2(NC1)O[C@H]1C[C@H]3[C@@H]4CC[C@H]5C[C@@H](O)CC[C@]5(C)[C@H]4CC[C@]3(C)[C@H]1[C@@H]2C [Tomatidine] (2 µM) | inactive: 0
